{"source": "patent US7999069B2", "about": "“EphB receptor-binding peptides” (Sanford-Burnham Medical Research Institute, priority 2005, dated 2011)", "biological_target": "T1, EphB4 (Homo sapiens, UniProt P54760)", "T1 construct": "panned on the ectodomains of EphB1, EphB2, or EphB4 fused to human Fc", "T1 sequence (P54760 16-539 limits assumed)": "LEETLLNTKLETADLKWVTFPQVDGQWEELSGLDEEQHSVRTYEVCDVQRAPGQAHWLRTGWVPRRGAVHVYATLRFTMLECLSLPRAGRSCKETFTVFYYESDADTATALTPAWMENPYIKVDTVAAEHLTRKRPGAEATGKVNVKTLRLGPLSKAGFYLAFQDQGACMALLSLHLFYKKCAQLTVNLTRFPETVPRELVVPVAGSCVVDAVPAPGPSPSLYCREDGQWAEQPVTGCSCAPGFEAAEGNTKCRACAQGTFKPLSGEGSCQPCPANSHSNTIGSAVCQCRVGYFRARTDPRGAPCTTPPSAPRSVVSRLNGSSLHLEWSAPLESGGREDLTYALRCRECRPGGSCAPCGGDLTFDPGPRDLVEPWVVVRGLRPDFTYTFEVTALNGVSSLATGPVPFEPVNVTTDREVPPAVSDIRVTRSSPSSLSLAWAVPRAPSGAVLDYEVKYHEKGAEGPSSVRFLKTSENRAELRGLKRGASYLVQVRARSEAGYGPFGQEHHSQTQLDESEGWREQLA", "assay": "Peptide competition of phage binding to EphB4 ectodomain", "experimental": "To measure peptide competition of phage binding to EphB receptors, Ni-NTA wells coated with Eph ectodomain Fc were incubated for 30 min at room temperature with various peptide concentrations in binding buffer (100 μl/well). Concentrated stocks of phage clones diluted between 1:500 and 1:10,000 in binding buffer were then added to the wells for a 1 hr at room temperature. Wells were washed and bound phage were detected using the anti-M13 antibody. A biotinylated control peptide with sequence unrelated to the sequences of the Eph-binding peptides ([…], SEQ ID NO: 40) was used as a negative control in some of the experiments, as indicated in the figure legends.\n[…]. The SNEW peptide at 25 μM inhibited EphB2 binding of most phage clones isolated by panning on EphB2 (FIGS. 2E and G). The only exceptions were the IHWP, DHRWV and WHWT clones. However, binding of these clones was inhibited by 50 μM SNEW peptide, particularly when the phage concentration was halved. […] Bound phage were detected using anti-M13 phage antibody coupled to HRP and phage binding in the presence of peptide was normalized to phage binding in the absence of peptide. Error bars indicate standard deviation from duplicate measurements, and were calculated taking into account propagation of errors.", "note": "At least one peptide structure holds a part that was inferred or is arguable (an end, a ring closure or a residue)."}
{"smiles": "CC[C@H](C)[C@H](NC(=O)[C@@H]1CCCN1C(=O)CNC(=O)[C@H](CC(N)=O)NC(=O)[C@@H]1CCCN1C(=O)[C@H](CO)NC(=O)[C@H](Cc1ccccc1)NC(=O)[C@H](CC(C)C)NC(=O)[C@H](Cc1ccc(O)cc1)NC(=O)[C@H](CC(N)=O)NC(=O)[C@@H](N)[C@@H](C)O)C(=O)N[C@@H](C)C(=O)O", "note": "[SEQ ID NO 24]", "values": [{"measurement": "Inhibition of EphB4 binding of phage clones isolated by panning on EphB4", "setting": "25 μM peptide", "result": "inhibited binding to EphB4 of the phage clones that were isolated by panning on EphB4, except for the DALN clone"}, {"measurement": "Inhibition of binding of the corresponding phage clone to EphB4", "setting": "concentration-dependent", "result": "efficiently inhibited binding"}]}
